According to the supplement of paper PMC4604168 (melanoma cell lines):
The list shows a part of the results. Single values are uncertain, as repeats are few or missing.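 The apoptosis fraction was the count of cleaved-PARP antibody-stained nuclei relative to all DNA-stained nuclei, imaged in 1,536-well plates. Screening doses were set so most cells survived, and baseline and induced cleaved-PARP levels vary greatly across cell lines.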

Key:
Assay in all cases: cleaved PARP positive nuclei fraction relative to DMSO control; melanoma cells; higher = more apoptosis
Conditions in all cases: library dose: low library concentration; 72 h
WM115 = test system: WM115
WM1716 = test system: WM1716
WM1745 = test system: WM1745
WM3526 = test system: WM3526
WM3619 = test system: WM3619
WM451Lu = test system: WM451Lu

| Compound | cleaved PARP positive nuclei fraction (WM115) | cleaved PARP positive nuclei fraction (WM1716) | cleaved PARP positive nuclei fraction (WM1745) | cleaved PARP positive nuclei fraction (WM3526) | cleaved PARP positive nuclei fraction (WM3619) | cleaved PARP positive nuclei fraction (WM451Lu) |
| --- | --- | --- | --- | --- | --- | --- |
| Cc1cc(N2CCOCC2)cc2[nH]c(-c3c(NC[C@@H](O)c4cccc(Cl)c4)cc[nH]c3=O)nc12 + Cc1cc(SCc2sc(-c3ccc(C(F)(F)F)c(F)c3)nc2C)ccc1OCC(=O)O [GW0742] (first compound 0.2 µM, partner dose 2 µM) | 66.7% | 35.6% | 117% | 64.8% | 96.6% | 123% |
| C=CCNC1=C2C[C@@H](C)C[C@H](OC)[C@H](O)[C@@H](C)/C=C(\C)[C@H](OC(N)=O)[C@@H](OC)/C=C\C=C(/C)C(=O)NC(=CC1=O)C2=O [Tanespimycin] + C[As](C)SC[C@H](NC(=O)CC[C@H](N)C(=O)O)C(=O)NCC(=O)O [Darinaparsin] (first compound 0.002 µM, partner dose 0.4 µM) | 146% | 214% | 133% | 86.8% | 108% | 148% |
| N.N.[Cl][Pt][Cl] [cisplatin] + Cc1cc(SCc2sc(-c3ccc(C(F)(F)F)c(F)c3)nc2C)ccc1OCC(=O)O [GW0742] (first compound 1.6 µM, partner dose 2 µM) | 193% | 230% | 81.4% | 140% | 109% | 285% |
| COc1ccc(C2=N[C@@H](c3ccc(Cl)cc3)[C@@H](c3ccc(Cl)cc3)N2C(=O)N2CCNC(=O)C2)c(OC(C)C)c1 [Nutlin-3] + C[C@]12O[C@H](C[C@]1(O)CO)n1c3ccccc3c3c4c(c5c6ccccc6n2c5c31)CNC4=O [Lestaurtinib] (first compound 0.1 µM, partner dose 0.004 µM) | 87.2% | 135% | 104% | 104% | 98.6% | 119% |
| O=C(O)c1ccc(-c2c[nH]c3ncc(-c4ccccc4)cc23)cc1C1CCCC1 + Cc1cc(SCc2sc(-c3ccc(C(F)(F)F)c(F)c3)nc2C)ccc1OCC(=O)O [GW0742] (first compound 0.16 µM, partner dose 2 µM) | 95.1% | 50% | 104% | 121% | 87.6% | 181% |
| Cn1cc(C2=C(c3cn(C4CCN(Cc5ccccn5)CC4)c4ccccc34)C(=O)NC2=O)c2ccccc21 [Enzastaurin] + Cn1cc(/C=C2\C(=O)Nc3cccnc32)c2ccccc21 [GW441756] (first compound 0.8 µM, partner dose 0.4 µM) | 66.6% | 184% | 97.1% | 65.5% | 100% | 114% |
| N.N.[Cl][Pt][Cl] [cisplatin] + CC(C)(C)c1cnc(CSc2cnc(NC(=O)C3CCNCC3)s2)o1 [SNS-032] (first compound 1.6 µM, partner dose 0.01 µM) | 63.5% | 119% | 92.3% | 58.2% | 82.5% | 60% |
| Cn1cncc1[C@@](N)(c1ccc(Cl)cc1)c1ccc2c(c1)c(-c1cccc(Cl)c1)cc(=O)n2C [tipifarnib] + O=C(Oc1ccc([N+](=O)[O-])cc1)N1CCC(C(O)(c2ccc3c(c2)OCO3)c2ccc3c(c2)OCO3)CC1 [JZL184] (first compound 0.01 µM, partner dose 1 µM) | 112% | 41.6% | 119% | 74.8% | 75% | 341% |
| Cn1sc(=O)n(Cc2ccccc2)c1=O + C[C@]12O[C@H](C[C@]1(O)CO)n1c3ccccc3c3c4c(c5c6ccccc6n2c5c31)CNC4=O [Lestaurtinib] (first compound 0.4 µM, partner dose 0.004 µM) | 89.3% | 67.3% | 81.9% | 83.4% | 99.6% | 40.7% |
| O=C(O)c1ccc(-c2c[nH]c3ncc(-c4ccccc4)cc23)cc1C1CCCC1 + O=C(Oc1ccc([N+](=O)[O-])cc1)N1CCC(C(O)(c2ccc3c(c2)OCO3)c2ccc3c(c2)OCO3)CC1 [JZL184] (first compound 0.16 µM, partner dose 1 µM) | 66% | 123% | 102% | 33.3% | 81.7% | 57.3% |
| COc1ccc(-c2ccc3c(N4CCOCC4)nc(N4C[C@@H](C)O[C@@H](C)C4)nc3n2)cc1CO + C/C(O)=C(\C#N)C(=O)Nc1cc(Br)ccc1Br [LFM-A13] (first compound 0.02 µM, partner dose 2 µM) | 83.5% | 76.9% | 1230% | 56% | 85% | 64.9% |
| O=C(/C=C/c1cccnc1)NCCCCC1CCN(C(=O)c2ccccc2)CC1 + Cn1cc(C2=C(c3cn(C4CCN(Cc5ccccn5)CC4)c4ccccc34)C(=O)NC2=O)c2ccccc21 [Enzastaurin] (first compound 0.01 µM, partner dose 0.8 µM) | 65.8% | 36.4% | 93.3% | 48.3% | 101% | 70.8% |
| N.N.[Cl][Pt][Cl] [cisplatin] + O=C(O)C(=O)Nc1sc2c(c1C(=O)O)CCNC2 [TCS401] (first compound 1.6 µM, partner dose 1.66667 µM) | 111% | 107% | 282% | 86.5% | 107% | 42.6% |
| Cn1cc(C2=C(c3cn(C4CCN(Cc5ccccn5)CC4)c4ccccc34)C(=O)NC2=O)c2ccccc21 [Enzastaurin] + NC(=O)c1ccc(N(C(N)=O)c2c(F)cccc2F)nc1-c1ccc(F)cc1F [VX702] (first compound 0.8 µM, partner dose 0.4 µM) | 46.2% | 138% | 104% | 46% | 86.1% | 126% |
| N.N.[Cl][Pt][Cl] [cisplatin] + COc1ccc(-c2ccc3c(N4CCOCC4)nc(N4C[C@@H](C)O[C@@H](C)C4)nc3n2)cc1CO [KU0063794] (first compound 1.6 µM, partner dose 0.02 µM) | 68% | 100% | 98.9% | 77.5% | 105% | 27.2% |
| Cn1cc(C2=C(c3cn(C4CCN(Cc5ccccn5)CC4)c4ccccc34)C(=O)NC2=O)c2ccccc21 [Enzastaurin] + C[C@@H](Oc1cc(-c2cnn(C3CCNCC3)c2)cnc1N)c1c(Cl)ccc(F)c1Cl [Crizotinib] (first compound 0.8 µM, partner dose 0.2 µM) | 50.6% | 178% | 91% | 671% | 171% | 177% |
| Nc1cccc2c1CN(C1CCC(=O)NC1=O)C2=O (stereo not given) [lenalidomide] + Cc1cc(SCc2sc(-c3ccc(C(F)(F)F)c(F)c3)nc2C)ccc1OCC(=O)O [GW0742] (first compound 1 µM, partner dose 2 µM) | 325% | 73.5% | 94.5% | 74.1% | 75.1% | 62.8% |
| Nc1ccn([C@@H]2O[C@H](CO)[C@@H](O)C2(F)F)c(=O)n1 [gemcitabine] + O=C(Oc1ccc([N+](=O)[O-])cc1)N1CCC(C(O)(c2ccc3c(c2)OCO3)c2ccc3c(c2)OCO3)CC1 [JZL184] (first compound 0.0004 µM, partner dose 1 µM) | 36% | 103% | 152% | 65.5% | 118% | 119% |
| O=c1[nH]nc(Sc2ncc([N+](=O)[O-])s2)n1-c1ccc2c(c1)OCCO2 + N.N.[Cl][Pt][Cl] [cisplatin] (first compound 0.2 µM, partner dose 1.6 µM) | 99.5% | 131% | 102% | 223% | 75.2% | 103% |
| C[C@]12O[C@H](C[C@]1(O)CO)n1c3ccccc3c3c4c(c5c6ccccc6n2c5c31)CNC4=O [Lestaurtinib] + COc1ccc(Cl)c(Nc2nc3ccccc3nc2NS(=O)(=O)c2cccc(NC(=O)C(C)(C)N)c2)c1 [XL147] (first compound 0.004 µM, partner dose 0.8 µM) | 147% | 67.5% | 92.7% | 62.8% | 120% | 56.4% |
| N.N.[Cl][Pt][Cl] [cisplatin] + Nc1ccn([C@@H]2O[C@H](CO)[C@@H](O)C2(F)F)c(=O)n1 [gemcitabine] (first compound 1.6 µM, partner dose 0.0004 µM) | 55.3% | 56.1% | 92.9% | 136% | 94.7% | 88.7% |
| N.N.[Cl][Pt][Cl] [cisplatin] + CO[C@@H]1[C@H](N(C)C(=O)c2ccccc2)C[C@H]2O[C@]1(C)n1c3ccccc3c3c4c(c5c6ccccc6n2c5c31)C(=O)NC4 [Midostaurin] (first compound 1.6 µM, partner dose 0.08 µM) | 113% | 251% | 103% | 59.3% | 120% | 94.2% |
| C[C@@H](N)c1ccc(C(=O)Nc2ccnc3[nH]ccc23)cc1 + Cc1cc(SCc2sc(-c3ccc(C(F)(F)F)c(F)c3)nc2C)ccc1OCC(=O)O [GW0742] (first compound 0.4 µM, partner dose 2 µM) | 240% | 1940% | 95.1% | 214% | 392% | 76.1% |
| Cn1c(Nc2ccc(C(F)(F)F)cc2)nc2cc(Oc3ccnc(-c4ncc(C(F)(F)F)[nH]4)c3)ccc21 + C/C(O)=C(\C#N)C(=O)Nc1cc(Br)ccc1Br [LFM-A13] (first compound 0.08 µM, partner dose 2 µM) | 946% | 200% | 164% | 56.8% | 163% | 277% |
| Cc1cc(SCc2sc(-c3ccc(C(F)(F)F)c(F)c3)nc2C)ccc1OCC(=O)O + COc1cc(N2CCC(N3CCN(C)CC3)CC2)ccc1Nc1ncc(Cl)c(Nc2ccccc2S(=O)(=O)C(C)C)n1 [NVP-TAE684] (first compound 2 µM, partner dose 0.08 µM) | 83.7% | 53% | 90.7% | 76.2% | 91% | 27.1% |

Two entries picked at random from those above, as already listed:

| Compound | cleaved PARP positive nuclei fraction (WM115) | cleaved PARP positive nuclei fraction (WM1716) | cleaved PARP positive nuclei fraction (WM1745) | cleaved PARP positive nuclei fraction (WM3526) | cleaved PARP positive nuclei fraction (WM3619) | cleaved PARP positive nuclei fraction (WM451Lu) |
| --- | --- | --- | --- | --- | --- | --- |
| COc1ccc(-c2ccc3c(N4CCOCC4)nc(N4C[C@@H](C)O[C@@H](C)C4)nc3n2)cc1CO + C/C(O)=C(\C#N)C(=O)Nc1cc(Br)ccc1Br [LFM-A13] (first compound 0.02 µM, partner dose 2 µM) | 83.5% | 76.9% | 1230% | 56% | 85% | 64.9% |
| C[C@@H](N)c1ccc(C(=O)Nc2ccnc3[nH]ccc23)cc1 + Cc1cc(SCc2sc(-c3ccc(C(F)(F)F)c(F)c3)nc2C)ccc1OCC(=O)O [GW0742] (first compound 0.4 µM, partner dose 2 µM) | 240% | 1940% | 95.1% | 214% | 392% | 76.1% |
